Measurements reported in the supplement of paper PMC7666118.
The list shows a part of the results.

Protein sequences, listed by entry. Tags and fused reporters are not part of them. Lines headed by an entry give the natural chain unless they say otherwise; changes in a name come on top.
UniProt Q96I45: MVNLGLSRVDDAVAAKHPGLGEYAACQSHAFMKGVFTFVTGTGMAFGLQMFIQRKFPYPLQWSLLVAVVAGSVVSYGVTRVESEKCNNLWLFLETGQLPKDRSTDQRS
UniProt Q9UM00: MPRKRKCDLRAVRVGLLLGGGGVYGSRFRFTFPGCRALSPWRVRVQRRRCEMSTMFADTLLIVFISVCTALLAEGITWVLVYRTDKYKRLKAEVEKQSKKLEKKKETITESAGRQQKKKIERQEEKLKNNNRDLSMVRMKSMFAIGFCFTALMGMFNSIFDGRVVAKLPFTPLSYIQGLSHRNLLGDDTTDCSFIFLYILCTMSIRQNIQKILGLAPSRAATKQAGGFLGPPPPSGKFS
UniProt Q13769: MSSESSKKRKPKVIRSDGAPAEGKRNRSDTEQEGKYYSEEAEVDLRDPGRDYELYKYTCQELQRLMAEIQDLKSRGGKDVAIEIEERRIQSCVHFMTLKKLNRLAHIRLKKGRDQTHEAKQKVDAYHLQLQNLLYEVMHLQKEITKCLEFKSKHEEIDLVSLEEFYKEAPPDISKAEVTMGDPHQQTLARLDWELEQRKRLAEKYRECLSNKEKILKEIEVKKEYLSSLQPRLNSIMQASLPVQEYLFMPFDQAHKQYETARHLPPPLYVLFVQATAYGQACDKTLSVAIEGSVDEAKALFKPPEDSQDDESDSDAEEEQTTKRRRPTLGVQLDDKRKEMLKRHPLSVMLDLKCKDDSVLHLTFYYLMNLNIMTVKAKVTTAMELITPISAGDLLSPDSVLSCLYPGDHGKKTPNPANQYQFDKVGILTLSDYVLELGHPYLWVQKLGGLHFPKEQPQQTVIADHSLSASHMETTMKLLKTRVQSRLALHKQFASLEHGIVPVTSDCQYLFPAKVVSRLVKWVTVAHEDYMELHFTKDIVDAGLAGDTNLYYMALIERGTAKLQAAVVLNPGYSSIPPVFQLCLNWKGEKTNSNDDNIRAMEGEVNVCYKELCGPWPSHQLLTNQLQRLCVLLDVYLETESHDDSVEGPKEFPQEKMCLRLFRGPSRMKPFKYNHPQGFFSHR
UniProt Q8WUH2: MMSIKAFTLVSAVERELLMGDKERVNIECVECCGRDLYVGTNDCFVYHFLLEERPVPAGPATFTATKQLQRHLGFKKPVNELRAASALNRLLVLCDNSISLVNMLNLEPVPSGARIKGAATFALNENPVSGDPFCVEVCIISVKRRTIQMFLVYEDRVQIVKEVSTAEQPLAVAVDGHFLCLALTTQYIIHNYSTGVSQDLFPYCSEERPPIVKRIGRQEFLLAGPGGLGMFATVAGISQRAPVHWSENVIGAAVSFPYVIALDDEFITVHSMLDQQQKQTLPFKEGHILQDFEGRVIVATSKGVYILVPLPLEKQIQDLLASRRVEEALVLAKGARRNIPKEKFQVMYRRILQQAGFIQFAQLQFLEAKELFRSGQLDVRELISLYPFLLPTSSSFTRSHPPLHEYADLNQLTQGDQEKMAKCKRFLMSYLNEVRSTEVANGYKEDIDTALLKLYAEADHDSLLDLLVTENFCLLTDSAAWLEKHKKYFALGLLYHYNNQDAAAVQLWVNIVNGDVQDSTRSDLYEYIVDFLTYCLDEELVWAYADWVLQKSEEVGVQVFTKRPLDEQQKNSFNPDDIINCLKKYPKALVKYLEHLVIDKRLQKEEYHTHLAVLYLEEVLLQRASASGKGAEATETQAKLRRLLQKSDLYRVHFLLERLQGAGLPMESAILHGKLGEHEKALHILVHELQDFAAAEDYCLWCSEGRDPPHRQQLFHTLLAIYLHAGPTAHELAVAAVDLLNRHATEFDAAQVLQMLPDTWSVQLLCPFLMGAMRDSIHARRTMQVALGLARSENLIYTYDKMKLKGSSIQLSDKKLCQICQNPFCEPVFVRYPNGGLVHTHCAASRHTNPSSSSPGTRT
UniProt Q5U3C3: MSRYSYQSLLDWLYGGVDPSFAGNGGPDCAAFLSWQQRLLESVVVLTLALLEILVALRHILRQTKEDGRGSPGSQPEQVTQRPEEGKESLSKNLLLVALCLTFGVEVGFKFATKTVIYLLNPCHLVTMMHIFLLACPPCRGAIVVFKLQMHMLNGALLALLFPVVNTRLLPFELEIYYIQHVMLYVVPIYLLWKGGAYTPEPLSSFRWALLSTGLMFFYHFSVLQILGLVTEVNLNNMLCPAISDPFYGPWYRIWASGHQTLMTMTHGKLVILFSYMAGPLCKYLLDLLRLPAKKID
UniProt Q9BTW9: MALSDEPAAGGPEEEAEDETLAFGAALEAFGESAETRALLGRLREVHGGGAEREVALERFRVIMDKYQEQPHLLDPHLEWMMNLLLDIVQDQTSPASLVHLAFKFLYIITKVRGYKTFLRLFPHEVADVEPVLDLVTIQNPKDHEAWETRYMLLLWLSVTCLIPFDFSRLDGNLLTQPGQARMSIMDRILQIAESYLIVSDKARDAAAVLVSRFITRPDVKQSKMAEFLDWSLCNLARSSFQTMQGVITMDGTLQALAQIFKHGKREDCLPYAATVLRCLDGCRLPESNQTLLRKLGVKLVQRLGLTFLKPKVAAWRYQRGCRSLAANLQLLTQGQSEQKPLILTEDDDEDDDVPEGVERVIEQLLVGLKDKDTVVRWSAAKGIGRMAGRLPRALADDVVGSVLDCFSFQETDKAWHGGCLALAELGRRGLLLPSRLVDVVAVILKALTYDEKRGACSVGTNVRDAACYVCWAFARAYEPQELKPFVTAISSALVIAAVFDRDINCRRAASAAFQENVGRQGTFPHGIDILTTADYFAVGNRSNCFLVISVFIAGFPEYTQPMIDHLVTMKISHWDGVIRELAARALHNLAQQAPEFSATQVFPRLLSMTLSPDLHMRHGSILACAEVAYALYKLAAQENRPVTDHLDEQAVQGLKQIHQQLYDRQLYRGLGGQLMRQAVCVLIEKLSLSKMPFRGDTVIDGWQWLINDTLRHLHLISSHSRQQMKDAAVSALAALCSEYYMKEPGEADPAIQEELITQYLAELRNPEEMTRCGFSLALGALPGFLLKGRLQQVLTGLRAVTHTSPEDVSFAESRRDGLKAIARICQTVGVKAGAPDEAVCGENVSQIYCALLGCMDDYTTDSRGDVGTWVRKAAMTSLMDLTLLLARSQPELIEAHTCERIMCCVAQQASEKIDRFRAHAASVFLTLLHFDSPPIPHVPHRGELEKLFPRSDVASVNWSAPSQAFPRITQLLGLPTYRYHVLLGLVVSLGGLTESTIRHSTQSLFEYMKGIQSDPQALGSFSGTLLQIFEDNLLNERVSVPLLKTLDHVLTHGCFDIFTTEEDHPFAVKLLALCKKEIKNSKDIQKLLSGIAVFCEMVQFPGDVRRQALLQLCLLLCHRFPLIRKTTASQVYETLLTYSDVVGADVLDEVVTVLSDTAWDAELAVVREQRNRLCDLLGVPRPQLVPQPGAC
UniProt Q5QJ74: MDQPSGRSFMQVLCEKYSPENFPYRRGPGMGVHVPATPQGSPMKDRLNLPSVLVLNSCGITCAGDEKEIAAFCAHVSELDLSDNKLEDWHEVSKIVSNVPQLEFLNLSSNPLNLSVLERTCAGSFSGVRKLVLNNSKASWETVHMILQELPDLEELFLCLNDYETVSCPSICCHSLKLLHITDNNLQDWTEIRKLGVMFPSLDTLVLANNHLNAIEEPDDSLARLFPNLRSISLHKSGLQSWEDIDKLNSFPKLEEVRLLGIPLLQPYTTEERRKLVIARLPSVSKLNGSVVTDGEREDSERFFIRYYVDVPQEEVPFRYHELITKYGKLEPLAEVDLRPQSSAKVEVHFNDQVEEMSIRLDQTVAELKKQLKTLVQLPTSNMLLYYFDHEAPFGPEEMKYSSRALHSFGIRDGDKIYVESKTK
UniProt Q5SNT2: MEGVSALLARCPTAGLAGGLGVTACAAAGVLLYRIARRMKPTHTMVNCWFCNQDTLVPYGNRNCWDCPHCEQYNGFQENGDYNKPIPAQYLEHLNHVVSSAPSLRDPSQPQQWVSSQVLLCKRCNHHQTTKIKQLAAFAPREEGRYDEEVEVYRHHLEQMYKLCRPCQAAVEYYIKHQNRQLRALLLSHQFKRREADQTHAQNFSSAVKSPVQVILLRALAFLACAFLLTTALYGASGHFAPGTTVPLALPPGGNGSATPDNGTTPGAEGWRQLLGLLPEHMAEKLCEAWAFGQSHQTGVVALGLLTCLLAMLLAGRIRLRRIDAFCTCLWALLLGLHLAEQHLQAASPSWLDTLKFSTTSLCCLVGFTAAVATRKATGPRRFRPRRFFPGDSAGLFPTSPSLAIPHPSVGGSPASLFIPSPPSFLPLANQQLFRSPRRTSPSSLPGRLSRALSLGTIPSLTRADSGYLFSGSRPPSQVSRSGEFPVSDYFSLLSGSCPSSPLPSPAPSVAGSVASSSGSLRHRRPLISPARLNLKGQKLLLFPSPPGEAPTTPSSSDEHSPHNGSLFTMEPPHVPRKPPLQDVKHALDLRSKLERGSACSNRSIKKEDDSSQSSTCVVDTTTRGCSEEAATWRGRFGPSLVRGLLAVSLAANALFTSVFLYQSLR
UniProt Q9ULP9: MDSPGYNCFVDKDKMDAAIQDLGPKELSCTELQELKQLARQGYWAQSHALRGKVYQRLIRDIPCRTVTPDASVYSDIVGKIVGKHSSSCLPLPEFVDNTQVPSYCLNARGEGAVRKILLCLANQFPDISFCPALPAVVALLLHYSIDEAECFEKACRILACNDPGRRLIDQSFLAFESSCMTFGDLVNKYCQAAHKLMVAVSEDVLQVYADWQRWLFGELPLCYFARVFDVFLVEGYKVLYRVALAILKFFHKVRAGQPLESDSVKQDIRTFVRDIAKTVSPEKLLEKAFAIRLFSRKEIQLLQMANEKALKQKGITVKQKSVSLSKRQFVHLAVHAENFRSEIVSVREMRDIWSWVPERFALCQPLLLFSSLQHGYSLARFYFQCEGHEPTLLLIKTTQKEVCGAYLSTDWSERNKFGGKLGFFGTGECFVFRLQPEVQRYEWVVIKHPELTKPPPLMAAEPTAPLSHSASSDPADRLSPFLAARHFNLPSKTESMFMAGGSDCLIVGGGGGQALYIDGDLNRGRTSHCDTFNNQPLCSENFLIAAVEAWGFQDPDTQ
UniProt Q15633: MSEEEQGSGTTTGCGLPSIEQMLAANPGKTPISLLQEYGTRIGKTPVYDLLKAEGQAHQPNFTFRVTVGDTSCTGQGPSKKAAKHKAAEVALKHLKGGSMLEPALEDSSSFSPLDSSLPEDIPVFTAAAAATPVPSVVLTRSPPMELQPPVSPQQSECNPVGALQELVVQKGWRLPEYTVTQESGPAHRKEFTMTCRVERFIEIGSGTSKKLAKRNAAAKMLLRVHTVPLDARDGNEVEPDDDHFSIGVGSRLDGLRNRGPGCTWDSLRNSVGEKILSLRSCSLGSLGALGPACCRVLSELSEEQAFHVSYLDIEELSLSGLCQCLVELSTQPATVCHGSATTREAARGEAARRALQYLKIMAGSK
UniProt Q5BJD5: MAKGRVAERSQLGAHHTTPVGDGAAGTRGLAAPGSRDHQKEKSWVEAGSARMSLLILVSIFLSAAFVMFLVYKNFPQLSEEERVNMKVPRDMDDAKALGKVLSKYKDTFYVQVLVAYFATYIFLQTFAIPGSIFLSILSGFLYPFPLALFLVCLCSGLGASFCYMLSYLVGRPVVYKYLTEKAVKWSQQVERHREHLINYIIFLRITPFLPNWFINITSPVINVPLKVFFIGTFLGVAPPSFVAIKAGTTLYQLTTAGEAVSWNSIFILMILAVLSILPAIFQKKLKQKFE
UniProt Q9H7E2: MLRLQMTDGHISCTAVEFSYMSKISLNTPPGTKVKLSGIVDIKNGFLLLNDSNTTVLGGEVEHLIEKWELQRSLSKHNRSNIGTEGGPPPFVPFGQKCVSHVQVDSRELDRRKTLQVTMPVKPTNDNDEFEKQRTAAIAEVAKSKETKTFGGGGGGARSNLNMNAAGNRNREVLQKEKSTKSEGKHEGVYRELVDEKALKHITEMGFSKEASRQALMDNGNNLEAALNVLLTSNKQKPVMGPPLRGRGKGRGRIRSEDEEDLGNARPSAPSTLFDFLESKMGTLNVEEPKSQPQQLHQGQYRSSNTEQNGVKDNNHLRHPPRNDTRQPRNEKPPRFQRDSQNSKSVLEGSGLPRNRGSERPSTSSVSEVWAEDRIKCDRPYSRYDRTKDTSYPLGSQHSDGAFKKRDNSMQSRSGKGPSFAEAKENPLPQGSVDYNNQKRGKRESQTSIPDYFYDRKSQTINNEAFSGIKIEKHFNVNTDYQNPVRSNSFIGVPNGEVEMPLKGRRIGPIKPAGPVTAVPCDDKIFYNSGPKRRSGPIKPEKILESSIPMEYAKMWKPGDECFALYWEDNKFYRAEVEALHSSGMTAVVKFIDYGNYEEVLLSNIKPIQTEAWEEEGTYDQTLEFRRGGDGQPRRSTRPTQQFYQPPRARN
UniProt Q9BUB7: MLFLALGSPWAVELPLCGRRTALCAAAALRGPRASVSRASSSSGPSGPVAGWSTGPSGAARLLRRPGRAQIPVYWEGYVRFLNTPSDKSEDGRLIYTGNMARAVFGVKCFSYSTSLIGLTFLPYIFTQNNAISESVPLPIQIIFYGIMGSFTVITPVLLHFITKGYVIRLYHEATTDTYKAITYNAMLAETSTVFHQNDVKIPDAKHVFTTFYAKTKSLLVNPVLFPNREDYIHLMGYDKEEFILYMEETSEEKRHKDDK

What follows are targets tested with COc1ccc(Cn2ccc3ccc(C(=O)NO)cc32)cc1 (assay: dose-dependent thermal stabilisation call (2D-TPP, DLPTP, 10% FDR) (binary (1 = stabilised)); higher = stabilised by the compound). Details: system: HL-60 intact cells; concentration range 0.04-10 µM.

Target | dose-dependent thermal stabilisation call
TMEM141 (UniProt Q96I45) | inactive: 0
TMEM87A (UniProt Q8NBN3) | inactive: 0
TMCO1 (UniProt Q9UM00) | inactive: 0
THOC5 (UniProt Q13769) | inactive: 0
TMEM205 (UniProt Q6UW68) | inactive: 0
TOLLIP (UniProt Q9H0E2) | inactive: 0
TGFBRAP1 (UniProt Q8WUH2) | inactive: 0
TMEM164 (UniProt Q5U3C3) | inactive: 0
TAF9B (UniProt Q9HBM6) | inactive: 0
TMTC3 (UniProt Q6ZXV5) | inactive: 0
TBC1D9B (UniProt Q66K14) | inactive: 0
TBCD (UniProt Q9BTW9) | inactive: 0
THOC7 (UniProt Q6I9Y2) | inactive: 0
TIMM50 (UniProt Q3ZCQ8) | inactive: 0
TMEM194A (UniProt O14524) | inactive: 0
TMEM131 (UniProt Q92545) | inactive: 0
TMEM59 (UniProt Q9BXS4) | inactive: 0
TBCEL (UniProt Q5QJ74) | inactive: 0
TOMM22 (UniProt Q9NS69) | inactive: 0

Target | dose-dependent thermal stabilisation call
TMEM201 (UniProt Q5SNT2) | inactive: 0
TDRD7 (UniProt Q8NHU6) | inactive: 0
TMEM126B (UniProt Q8IUX1) | inactive: 0
TMEM173 (UniProt Q86WV6) | inactive: 0
TMBIM6 (UniProt P55061) | inactive: 0
TERF2 (UniProt Q15554) | inactive: 0
TARS2 (UniProt Q9BW92) | inactive: 0
TJP2 (UniProt Q9UDY2) | inactive: 0
TBC1D1 (UniProt Q86TI0) | inactive: 0
TBC1D24 (UniProt Q9ULP9) | inactive: 0
TMED9 (UniProt Q9BVK6) | inactive: 0
TLR2 (UniProt O60603) | inactive: 0
TARBP2 (UniProt Q15633) | inactive: 0
TMEM41B (UniProt Q5BJD5) | inactive: 0
TDRD3 (UniProt Q9H7E2) | inactive: 0
TBC1D5 (UniProt Q92609) | inactive: 0
TOR1B (UniProt O14657) | inactive: 0
TMEM70 (UniProt Q9BUB7) | inactive: 0

Quoted at random: 3 records from the list.
Target | dose-dependent thermal stabilisation call
TARBP2 (UniProt Q15633) | inactive: 0
TOR1B (UniProt O14657) | inactive: 0
TMEM173 (UniProt Q86WV6) | inactive: 0
